Experimental data from the supplement of paper PMC12819154, “High-throughput peptide-centric local stability assay extends protein–ligand identification to membrane proteins, tissues and bacteria” (Nature Structural & Molecular Biology, 2025).
This is one part of the list. Small differences around the control level are noise.

By UniProt entry, the sequences of proteins in these tests, tags left out. Where a name states a change or a piece, a line headed by the entry shows the natural chain unless it says otherwise.
UniProt O35685: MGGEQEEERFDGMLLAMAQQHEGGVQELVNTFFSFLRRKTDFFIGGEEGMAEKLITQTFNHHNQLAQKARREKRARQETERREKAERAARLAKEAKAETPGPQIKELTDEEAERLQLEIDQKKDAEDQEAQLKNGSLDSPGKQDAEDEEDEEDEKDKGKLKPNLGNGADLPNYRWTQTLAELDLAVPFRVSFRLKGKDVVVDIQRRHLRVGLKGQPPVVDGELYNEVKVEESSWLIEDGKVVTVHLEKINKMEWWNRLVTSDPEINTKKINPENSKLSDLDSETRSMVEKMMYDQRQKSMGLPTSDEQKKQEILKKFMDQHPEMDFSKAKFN
UniProt O54915: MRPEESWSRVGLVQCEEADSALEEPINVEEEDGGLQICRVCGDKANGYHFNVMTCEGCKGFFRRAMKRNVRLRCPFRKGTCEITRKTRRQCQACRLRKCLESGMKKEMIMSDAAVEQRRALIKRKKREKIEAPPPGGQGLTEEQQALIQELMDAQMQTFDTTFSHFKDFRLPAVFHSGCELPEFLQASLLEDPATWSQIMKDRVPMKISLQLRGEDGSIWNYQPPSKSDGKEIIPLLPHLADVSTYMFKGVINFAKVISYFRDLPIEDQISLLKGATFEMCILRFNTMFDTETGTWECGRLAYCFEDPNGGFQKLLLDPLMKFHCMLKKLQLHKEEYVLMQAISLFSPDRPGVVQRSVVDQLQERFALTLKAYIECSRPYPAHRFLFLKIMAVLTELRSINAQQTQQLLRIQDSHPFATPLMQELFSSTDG
UniProt O70439: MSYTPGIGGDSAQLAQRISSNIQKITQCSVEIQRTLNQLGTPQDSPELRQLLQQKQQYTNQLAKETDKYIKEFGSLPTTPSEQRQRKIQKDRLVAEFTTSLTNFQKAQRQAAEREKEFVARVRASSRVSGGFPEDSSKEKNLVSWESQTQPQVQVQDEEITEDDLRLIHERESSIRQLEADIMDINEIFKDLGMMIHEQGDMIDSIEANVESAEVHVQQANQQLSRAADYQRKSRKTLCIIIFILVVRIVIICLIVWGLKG
UniProt O70433: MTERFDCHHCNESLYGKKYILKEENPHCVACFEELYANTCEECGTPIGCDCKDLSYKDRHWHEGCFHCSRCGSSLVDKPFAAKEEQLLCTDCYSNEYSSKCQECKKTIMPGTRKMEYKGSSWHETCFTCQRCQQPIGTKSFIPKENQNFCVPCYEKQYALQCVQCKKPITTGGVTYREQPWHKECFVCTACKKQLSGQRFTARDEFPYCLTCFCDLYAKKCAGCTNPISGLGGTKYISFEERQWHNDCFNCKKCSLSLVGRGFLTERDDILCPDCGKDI
UniProt O70443: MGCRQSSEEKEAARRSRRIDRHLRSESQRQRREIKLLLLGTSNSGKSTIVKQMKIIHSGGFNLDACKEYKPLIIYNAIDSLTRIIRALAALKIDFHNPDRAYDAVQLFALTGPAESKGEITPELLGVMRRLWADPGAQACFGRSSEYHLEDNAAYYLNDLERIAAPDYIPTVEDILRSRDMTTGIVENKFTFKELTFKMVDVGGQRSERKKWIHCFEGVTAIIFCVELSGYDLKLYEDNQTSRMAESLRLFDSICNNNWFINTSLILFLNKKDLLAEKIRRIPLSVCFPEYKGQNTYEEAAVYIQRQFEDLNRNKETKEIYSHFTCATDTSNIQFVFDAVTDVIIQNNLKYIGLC
UniProt O88736: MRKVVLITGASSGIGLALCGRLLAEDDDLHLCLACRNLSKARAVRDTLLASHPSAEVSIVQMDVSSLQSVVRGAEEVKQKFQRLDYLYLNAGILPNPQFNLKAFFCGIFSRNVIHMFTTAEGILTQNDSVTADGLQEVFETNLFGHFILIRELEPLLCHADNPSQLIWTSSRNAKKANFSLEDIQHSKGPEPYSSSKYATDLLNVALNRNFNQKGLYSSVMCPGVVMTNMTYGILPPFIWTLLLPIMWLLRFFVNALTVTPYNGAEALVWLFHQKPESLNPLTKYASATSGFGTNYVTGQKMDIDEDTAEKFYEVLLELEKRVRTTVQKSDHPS
UniProt O70374, whole entry: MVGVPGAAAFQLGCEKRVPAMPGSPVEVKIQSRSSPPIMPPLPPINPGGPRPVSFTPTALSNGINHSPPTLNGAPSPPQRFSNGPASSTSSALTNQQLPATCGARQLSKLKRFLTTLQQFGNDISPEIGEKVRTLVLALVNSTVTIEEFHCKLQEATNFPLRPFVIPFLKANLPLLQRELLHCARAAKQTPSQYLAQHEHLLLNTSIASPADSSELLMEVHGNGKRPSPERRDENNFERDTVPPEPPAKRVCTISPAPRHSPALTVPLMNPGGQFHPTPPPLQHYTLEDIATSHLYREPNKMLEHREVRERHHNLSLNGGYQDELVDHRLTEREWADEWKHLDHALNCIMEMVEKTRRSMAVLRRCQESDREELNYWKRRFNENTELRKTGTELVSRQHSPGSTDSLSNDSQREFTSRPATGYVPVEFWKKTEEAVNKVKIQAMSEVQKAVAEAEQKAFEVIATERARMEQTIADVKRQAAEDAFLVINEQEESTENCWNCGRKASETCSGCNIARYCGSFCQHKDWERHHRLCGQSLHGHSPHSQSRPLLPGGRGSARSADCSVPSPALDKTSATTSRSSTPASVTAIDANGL
UniProt O55091: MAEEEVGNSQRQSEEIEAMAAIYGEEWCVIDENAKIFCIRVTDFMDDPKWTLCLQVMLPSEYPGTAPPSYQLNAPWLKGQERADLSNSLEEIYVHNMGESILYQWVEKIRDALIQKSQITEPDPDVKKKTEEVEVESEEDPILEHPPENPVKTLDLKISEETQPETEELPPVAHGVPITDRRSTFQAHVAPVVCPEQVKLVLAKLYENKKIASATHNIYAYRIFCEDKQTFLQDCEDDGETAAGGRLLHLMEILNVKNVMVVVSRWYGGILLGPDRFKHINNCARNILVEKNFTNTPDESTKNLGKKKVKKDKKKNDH
UniProt O88653, whole entry: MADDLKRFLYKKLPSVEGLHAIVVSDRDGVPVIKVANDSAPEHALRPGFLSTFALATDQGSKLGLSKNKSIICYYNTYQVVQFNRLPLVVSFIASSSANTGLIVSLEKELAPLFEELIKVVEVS
UniProt O55229: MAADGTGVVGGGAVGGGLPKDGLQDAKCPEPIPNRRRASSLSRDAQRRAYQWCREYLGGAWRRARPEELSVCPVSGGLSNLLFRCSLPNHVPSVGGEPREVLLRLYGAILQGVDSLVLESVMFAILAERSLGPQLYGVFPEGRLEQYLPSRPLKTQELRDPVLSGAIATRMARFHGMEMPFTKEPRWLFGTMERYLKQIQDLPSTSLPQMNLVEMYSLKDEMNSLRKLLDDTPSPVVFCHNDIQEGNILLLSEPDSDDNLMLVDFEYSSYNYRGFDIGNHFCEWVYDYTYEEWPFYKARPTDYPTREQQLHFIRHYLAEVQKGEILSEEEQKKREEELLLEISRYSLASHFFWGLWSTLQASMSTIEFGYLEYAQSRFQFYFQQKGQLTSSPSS
UniProt O35704: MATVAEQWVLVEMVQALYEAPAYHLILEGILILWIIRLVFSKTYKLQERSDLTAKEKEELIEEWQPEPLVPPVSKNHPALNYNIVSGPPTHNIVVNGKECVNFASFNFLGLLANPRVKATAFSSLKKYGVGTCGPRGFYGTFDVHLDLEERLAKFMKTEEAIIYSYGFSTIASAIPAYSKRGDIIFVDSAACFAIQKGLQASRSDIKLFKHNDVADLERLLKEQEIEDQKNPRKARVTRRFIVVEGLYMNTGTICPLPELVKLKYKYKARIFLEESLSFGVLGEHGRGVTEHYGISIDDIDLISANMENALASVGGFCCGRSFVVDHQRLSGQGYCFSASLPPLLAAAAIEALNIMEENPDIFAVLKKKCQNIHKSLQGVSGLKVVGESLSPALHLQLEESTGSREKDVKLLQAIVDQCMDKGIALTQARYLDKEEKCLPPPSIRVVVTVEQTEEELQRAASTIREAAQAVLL
UniProt O54890: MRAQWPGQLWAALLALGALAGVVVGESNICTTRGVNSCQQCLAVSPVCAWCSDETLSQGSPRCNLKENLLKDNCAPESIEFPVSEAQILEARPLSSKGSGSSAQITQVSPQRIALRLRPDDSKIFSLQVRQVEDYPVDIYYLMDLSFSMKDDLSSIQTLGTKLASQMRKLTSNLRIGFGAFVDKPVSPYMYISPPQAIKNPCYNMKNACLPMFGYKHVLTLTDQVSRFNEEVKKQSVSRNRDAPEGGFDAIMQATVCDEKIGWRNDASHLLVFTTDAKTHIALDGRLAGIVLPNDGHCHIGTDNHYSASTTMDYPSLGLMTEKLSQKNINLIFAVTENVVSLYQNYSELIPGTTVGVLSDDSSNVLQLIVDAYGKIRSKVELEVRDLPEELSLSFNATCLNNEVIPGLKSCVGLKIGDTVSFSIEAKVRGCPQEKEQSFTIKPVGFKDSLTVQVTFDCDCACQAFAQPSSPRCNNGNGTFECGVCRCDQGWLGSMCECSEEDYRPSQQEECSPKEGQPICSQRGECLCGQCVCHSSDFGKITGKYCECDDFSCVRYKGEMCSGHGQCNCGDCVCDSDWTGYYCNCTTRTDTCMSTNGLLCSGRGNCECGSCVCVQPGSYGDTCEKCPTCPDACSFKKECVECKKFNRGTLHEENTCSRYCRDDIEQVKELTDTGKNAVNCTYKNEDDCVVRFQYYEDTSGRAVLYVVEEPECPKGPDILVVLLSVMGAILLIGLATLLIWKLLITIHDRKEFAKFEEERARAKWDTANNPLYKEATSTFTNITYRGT
UniProt O70405: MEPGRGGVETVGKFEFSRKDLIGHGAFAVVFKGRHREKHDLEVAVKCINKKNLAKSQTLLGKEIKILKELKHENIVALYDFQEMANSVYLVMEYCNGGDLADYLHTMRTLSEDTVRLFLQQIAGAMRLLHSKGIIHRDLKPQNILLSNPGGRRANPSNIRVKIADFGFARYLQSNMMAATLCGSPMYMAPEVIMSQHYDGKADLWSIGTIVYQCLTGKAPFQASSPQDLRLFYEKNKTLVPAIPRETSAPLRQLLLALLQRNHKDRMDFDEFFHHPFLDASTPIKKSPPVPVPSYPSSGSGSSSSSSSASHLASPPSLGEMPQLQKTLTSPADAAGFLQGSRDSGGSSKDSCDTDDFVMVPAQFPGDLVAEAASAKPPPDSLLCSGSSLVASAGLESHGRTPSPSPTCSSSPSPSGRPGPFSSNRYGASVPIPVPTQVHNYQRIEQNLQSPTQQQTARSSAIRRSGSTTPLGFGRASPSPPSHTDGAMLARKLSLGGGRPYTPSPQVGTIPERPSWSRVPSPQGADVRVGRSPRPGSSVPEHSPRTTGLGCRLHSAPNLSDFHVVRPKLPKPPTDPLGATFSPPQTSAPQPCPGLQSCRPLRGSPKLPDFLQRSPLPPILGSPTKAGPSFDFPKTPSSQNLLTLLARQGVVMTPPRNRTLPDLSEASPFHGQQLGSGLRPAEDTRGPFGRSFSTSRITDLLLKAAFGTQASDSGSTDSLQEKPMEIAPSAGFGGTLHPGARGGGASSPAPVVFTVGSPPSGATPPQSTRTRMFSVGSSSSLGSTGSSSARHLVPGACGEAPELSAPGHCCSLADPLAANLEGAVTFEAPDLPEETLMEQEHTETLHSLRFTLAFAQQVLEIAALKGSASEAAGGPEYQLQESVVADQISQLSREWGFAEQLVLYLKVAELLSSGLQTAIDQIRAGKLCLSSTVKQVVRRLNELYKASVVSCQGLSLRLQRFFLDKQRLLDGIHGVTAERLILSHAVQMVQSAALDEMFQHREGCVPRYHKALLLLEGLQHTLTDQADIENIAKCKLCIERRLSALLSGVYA
UniProt O88892: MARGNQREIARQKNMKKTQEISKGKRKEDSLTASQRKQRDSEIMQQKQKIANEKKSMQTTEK
UniProt O54788: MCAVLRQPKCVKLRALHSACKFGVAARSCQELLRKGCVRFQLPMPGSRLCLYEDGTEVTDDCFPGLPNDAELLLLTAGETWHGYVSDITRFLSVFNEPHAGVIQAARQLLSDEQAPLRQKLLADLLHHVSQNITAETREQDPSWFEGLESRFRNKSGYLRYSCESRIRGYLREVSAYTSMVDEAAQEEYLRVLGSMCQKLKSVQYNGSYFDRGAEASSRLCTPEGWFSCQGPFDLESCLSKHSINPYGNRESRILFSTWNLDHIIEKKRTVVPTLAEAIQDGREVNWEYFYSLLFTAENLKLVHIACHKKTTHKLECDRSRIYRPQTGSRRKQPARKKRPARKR
UniProt O35855: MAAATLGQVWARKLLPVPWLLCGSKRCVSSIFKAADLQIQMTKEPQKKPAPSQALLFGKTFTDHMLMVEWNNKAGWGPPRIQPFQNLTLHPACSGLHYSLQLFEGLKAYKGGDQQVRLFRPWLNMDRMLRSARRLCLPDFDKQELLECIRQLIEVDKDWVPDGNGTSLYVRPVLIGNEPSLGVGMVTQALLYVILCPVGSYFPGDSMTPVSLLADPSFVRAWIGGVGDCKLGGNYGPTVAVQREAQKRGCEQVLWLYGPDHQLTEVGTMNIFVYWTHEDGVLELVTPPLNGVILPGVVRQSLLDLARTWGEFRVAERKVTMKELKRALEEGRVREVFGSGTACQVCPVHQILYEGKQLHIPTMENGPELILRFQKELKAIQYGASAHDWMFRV

Compound: CN[C@@H]1C[C@H]2O[C@@](C)([C@@H]1OC)n1c3ccccc3c3c4c(c5c6ccccc6n2c5c31)C(=O)NC4 [staurosporine]
Assay: log2 fold change of tryptic peptide abundance, ligand vs vehicle (limited proteolysis) (log2 ratio); higher = more trypsin-susceptible (destabilized)
Conditions: ligand concentration: 20 uM; sample: mouse liver crude lysate; replicate design: treated separately

Target | log2 fold change
UniProt O88668 (peptide sequence: LPPLPPREDGPR, peptide start residue: 46) | -0.263
UniProt O35685 (peptide sequence: LVTSDPEINTKK, peptide start residue: 258) | -0.676
UniProt O54915 (peptide sequence: IMAVLTELR, peptide start residue: 390) | 0.036
UniProt O88573 (peptide sequence: VAQAPSPCTAR, peptide start residue: 1091) | 0.237
UniProt O88696 (peptide sequence: KQLYNIYAK, peptide start residue: 199) | -0.298
UniProt O88735 (peptide sequence: GGDGATHSDPASDGYK, peptide start residue: 13) | 0.173
UniProt O70439 (peptide sequence: EKEFVAR, peptide start residue: 115) | -0.182
UniProt O70433 (peptide sequence: DLSYKDR, peptide start residue: 53) | -0.263
UniProt O70443 (peptide sequence: MVDVGGQR, peptide start residue: 220) | -0.334
UniProt O88736 (peptide sequence: LLAEDDDLHLCLACR, peptide start residue: 22) | -0.446
UniProt O88845 (peptide sequence: SKGFMFSQAMK, peptide start residue: 610) | -0.447
UniProt O35601 (peptide sequence: SKFMPAAQDTDSKPR, peptide start residue: 176) | 0.261
UniProt O88878 (peptide sequence: TNGMCSVCYKEHLQR, peptide start residue: 26) | 0.118
UniProt O70422 (peptide sequence: AWSDDTSQLGPDKHAR, peptide start residue: 129) | 0.131
UniProt O70145 (peptide sequence: AFVEGCAAK, peptide start residue: 508) | -0.414
UniProt O70374 (peptide sequence: QHSPGSTDSLSNDSQR, peptide start residue: 398) | -0.605
UniProt O55091 (peptide sequence: LLHLMEILNVK, peptide start residue: 247) | 0.277
UniProt O54916 (peptide sequence: TATNVPANVSK, peptide start residue: 680) | 0.0928
UniProt O88796 (peptide sequence: KPRPSEADDESLPVCK, peptide start residue: 247) | -0.0465
UniProt O88653 (peptide sequence: KLPSVEGLHAIVVSDRDGVPVIK, peptide start residue: 12) | -0.511

Part of the list above, set out differently.

| Target | log2 fold change |
| --- | --- |
| UniProt O35685 (peptide sequence: LVTSDPEINTKK, peptide start residue: 258) | -0.676 |
| UniProt O54915 (peptide sequence: IMAVLTELR, peptide start residue: 390) | 0.036 |

More results:

Target | log2 fold change
UniProt O88708 (peptide sequence: AHSVYNFEKPVVMK, peptide start residue: 358) | -0.249
UniProt O55135 (peptide sequence: HGLLVPNNTTDQELQHIR, peptide start residue: 68) | -0.244
UniProt O55229 (peptide sequence: LEQYLPSRPLK, peptide start residue: 144) | -0.701
UniProt O35490 (peptide sequence: GNYVAEKISGQK, peptide start residue: 87) | 0.422
UniProt O35704 (peptide sequence: HNDVADLER, peptide start residue: 211) | 0.34
UniProt O54890 (peptide sequence: AKWDTANNPLYK, peptide start residue: 762) | 0.394
UniProt O70338 (peptide sequence: AEIHAACK, peptide start residue: 184) | 0.247
UniProt O35930 (peptide sequence: SSLFLWVRPNGR, peptide start residue: 689) | -0.0819
UniProt O70405 (peptide sequence: IADFGFAR, peptide start residue: 163) | -0.572
UniProt O88892 (peptide sequence: DSEIMQQK, peptide start residue: 40) | -0.0304
UniProt O54788 (peptide sequence: LVHIACHK, peptide start residue: 302) | 0.301
UniProt O70281 (peptide sequence: AGGVSLSKVER, peptide start residue: 275) | -0.458
UniProt O88833 (peptide sequence: DQLQDEGELEK, peptide start residue: 271) | 0.195
UniProt O88502 (peptide sequence: IHSMMIEAPITK, peptide start residue: 380) | -0.171
UniProt O55033 (peptide sequence: LWLLDDSK, peptide start residue: 29) | 0.117
UniProt O35855 (peptide sequence: LGGNYGPTVAVQR, peptide start residue: 231) | 0.544
UniProt O70494 (peptide sequence: VACTCPNCKEGGGR, peptide start residue: 600) | -0.258
UniProt O35609 (peptide sequence: ERELQHVALGGAGTR, peptide start residue: 119) | 0.208
UniProt O88199 (peptide sequence: GRYMLVR, peptide start residue: 357) | 0.112
